Laboratory results reported in article PMC3460870.
No constants are given. Whether binding was seen depends on the method and setting. In cells and extracts the contact can be indirect. Here binding means that the protein was enriched with, or labelled near, the bait; the list need not be complete.

Target: T1, endogenous Vangl2 (human (endogenous in SKBR7)) (UniProt Q9ULK5)
T1 sequence: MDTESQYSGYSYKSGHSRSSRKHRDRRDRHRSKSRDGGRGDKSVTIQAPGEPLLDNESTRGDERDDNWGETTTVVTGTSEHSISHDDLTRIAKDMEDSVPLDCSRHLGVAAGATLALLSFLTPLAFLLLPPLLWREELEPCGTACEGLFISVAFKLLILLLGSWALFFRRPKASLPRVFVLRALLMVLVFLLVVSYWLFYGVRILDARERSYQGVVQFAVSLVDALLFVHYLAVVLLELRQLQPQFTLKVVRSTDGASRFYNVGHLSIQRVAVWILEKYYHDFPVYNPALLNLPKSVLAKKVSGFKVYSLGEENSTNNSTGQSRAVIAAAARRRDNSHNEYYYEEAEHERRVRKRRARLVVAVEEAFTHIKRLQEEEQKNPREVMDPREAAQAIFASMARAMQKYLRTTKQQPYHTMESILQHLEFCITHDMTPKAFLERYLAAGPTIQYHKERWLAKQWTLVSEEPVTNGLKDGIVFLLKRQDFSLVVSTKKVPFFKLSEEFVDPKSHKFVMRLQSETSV
Test: affinity purification with mass spectrometry; 2G4 mAb immunoprecipitation of endogenous Vangl2 from pre-cleared SKBR7 cell extracts (lysis buffer 150 mM NaCl, 20 mM Hepes, 5 mM EDTA, 1% NP40); band at about 60 kD excised, in-gel trypsin digestion, LC and Orbitrap; repeated with SKBR7 cells treated with shLuc or shVangl2

binding: binds
B1: endogenous Vangl1 (protein, UniProt Q8TAA9 1-524)
chain: MDTESTYSGYSYYSSHSKKSHRQGERTRERHKSPRNKDGRGSEKSVTIQPPTGEPLLGNDSTRTEEVQDDNWGETTTAITGTSEHSISQEDIARISKDMEDSVGLDCKRYLGLTVASFLGLLVFLTPIAFILLPPILWRDELEPCGTICEGLFISMAFKLLILLIGTWALFFRKRRADMPRVFVFRALLLVLIFLFVVSYWLFYGVRILDSRDRNYQGIVQYAVSLVDALLFIHYLAIVLLELRQLQPMFTLQVVRSTDGESRFYSLGHLSIQRAALVVLENYYKDFTIYNPNLLTASKFRAAKHMAGLKVYNVDGPSNNATGQSRAMIAAAARRRDSSHNELYYEEAEHERRVKKRKARLVVAVEEAFIHIQRLQAEEQQKAPGEVMDPREAAQAIFPSMARALQKYLRITRQQNYHSMESILQHLAFCITNGMTPKAFLERYLSAGPTLQYDKDRWLSTQWRLVSDEAVTNGLRDGIVFVLKCLDFSLVVNVKKIPFIILSEEFIDPKSHKFVLRLQSETSV
